Data source: PubChem BioAssay AID686937 (Drosophila RNAi Screening Center, 2013)
Aim: 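Knock-downs that reduce output of a secreted reporter enzyme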 (primary screen). Cells: Drosophila S2 cells expressing secreted horseradish peroxidase. Reagents: long dsRNA against Drosophila genes. Time to read-out: about 5.5 days (5 days dsRNA, then 12 h reporter induction). Conditions: reporter expression induced after 5 days of dsRNA, read 12 h later; inducer not stated. Read-out: 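Chemiluminescent measurement of peroxidase in the medium 12 h after reporter induction, following 5 days of dsRNA, given as a z-score per plate; higher means more secretion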. Reading the numbers: z-score: higher = more reporter secreted into medium.
The screen tested about 23,000 reagents; this is an unselected part of those with a known target gene and a result. 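Reduced-secretion tags in replicate 1 do not always agree with the z-scores; no criterion for assigning the tags was given.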 Reagents against one gene are numbered here. Names joined by + are all predicted targets of the reagent. Not given: the amount of reagent.

gene	reagent no.	z-score, replicate 1	z-score, replicate 2	z-score, replicate 3	z-score, replicate 4	phenotype, replicate 1
CG2736 (GeneID 37998)	1	0.28	0.26			
PolA1 (GeneID 42553)	1	0.38	-0.49			
CG10803 (GeneID 31320)	1	0.11	0			
Fas3 (GeneID 35097)	1	0.33	-0.09			
Fas3 (GeneID 35097)	2	0.76	0.62			
Fas3 (GeneID 35097)	3	0.09	-0.28			
ninaA (GeneID 33271)	1	0.19	0.4			
CG32081 (GeneID 326194)	1	0.56	0.42			
CG12605 (GeneID 38468)	1	0.21	0.31			
Gycbeta100B (GeneID 43682)	1	0.53	0.41			
Gycbeta100B (GeneID 43682)	2	0.73	0.85			
Gycbeta100B (GeneID 43682)	3	0.34	0.21			
Cpsf100 (GeneID 43426)	1	-1.49	-0.89			
CG4743 (GeneID 43101)	1	0.23	0.25			
pasi1 (GeneID 42139)	1	0.36	0.44	0.51	0.2	
pasi1 (GeneID 42139)	2	0.04	0.28			
Scgalpha (GeneID 34135)	1	0.58	0.42			
Cpr65Aw (GeneID 38706)	1	-1.01	-0.94			
CG8915 (GeneID 32715)	1	0.28	0.39			
CG43439 + CG32388	1	0.35	0.17			
unc-104 (GeneID 36876)	1	0.44	0.48			
AhcyL2 (GeneID 42043)	1	-0.09	-0.03			
Pop4 (GeneID 38889)	1	0.22	0.27			
CG8065 (GeneID 39186)	1	-0.08	0.12			
Wnk (GeneID 40391)	1	-3.38	-2.34			reduced secretion
Lcp65Ad (GeneID 38707)	1	0.4	0.41			
PIP82 (GeneID 31791)	1	0.34	-0.01			
Sdc (GeneID 37447)	1	-0.02	0.25			
alpha4GT1 (GeneID 33512)	1	0.29	0.36			
Or67c (GeneID 39189)	1	0.57	0.49			
CG7611 (GeneID 40386)	1	0.34	0.48	0.71	0.93	
CG11788 (GeneID 37295)	1	0.19	0.06			
CG12439 (GeneID 34234)	1	0.06	0			
CG17111 (GeneID 42727)	1	0.2	0.22			
CG2865 (GeneID 31217)	1	0.19	0.38			
CG2865 (GeneID 31217)	2	-1.62	0.21			
Obp58c (GeneID 37608)	1	0.03	0.2			
CG34135 + Nasp + CG11768	1	0.41	0.57			
CG34135 + Nasp + CG11768	2	-1.62	-0.47			reduced secretion
tty (GeneID 33109)	1	0.31	0.53			
CG30270 (GeneID 251324)	1	0.01	-0.09			
CR14117 (GeneID 39473)	1	0.24	0.4			
Or59c (GeneID 37716)	1	0.36	0.42			
CG13272 (GeneID 35013)	1	0.13	0.17			
CG13272 (GeneID 35013)	2	-0.19	-0.11			
sktl (GeneID 37356)	1	0.32	0.32			
Ae2 (GeneID 39147)	1	-1.43	0.53			
Ae2 (GeneID 39147)	2	0.01	-0.29			
CG9346 (GeneID 37381)	1	0.1	0.43			
Nna1 (GeneID 32329)	1	0.29	0.41	1.92	0.31	
Nna1 (GeneID 32329)	2	0.35	0.27			
Snmp1 (GeneID 42514)	1	-0.33	-0.18			
CG31229 (GeneID 318636)	1	-2.63	-1.14			reduced secretion
noi (GeneID 40678)	1	-3.83	-1.81			reduced secretion
CG33914 (GeneID 3772464)	1	0.1				
CG33914 (GeneID 3772464)	2	0.27				
cal1 (GeneID 42065)	1	0.01	-0.12			
CG15597 (GeneID 40767)	1	0.38	0.41	0.41	0.34	
CG12493 (GeneID 38575)	1	0.6	0.41			
Or42b (GeneID 35516)	1	0.13	0.2			
Rb97D (GeneID 43231)	1	0.51	0.54			
CG12071 (GeneID 43660)	1	-1.6	-1.24			reduced secretion
CG4928 (GeneID 32682)	1	0.28	0.09			
Gpdh1 (GeneID 33824)	1	0.24	0.27	0.13	-0.02	
Gpdh1 (GeneID 33824)	2	-0.58	0.82			
CG11406 (GeneID 37877)	1	0.21				
CG11406 (GeneID 37877)	2	0.71	0.45			
TfIIEbeta (GeneID 38527)	1	-5.79	-3.13			reduced secretion
Rrp45 (GeneID 32665)	1	-0.55	-0.71			
Sxl (GeneID 3772180)	1	0.49	0.62			
Sxl (GeneID 3772180)	2	0.23	0.66			
Sxl (GeneID 3772180)	3	0.04	0			
IleRS (GeneID 45785)	1	-0.54	-0.92			
CG14480 (GeneID 36988)	1	0.31	0.37			
Lamtor5 (GeneID 31137)	1	-0.14	0			
Prosalpha4T2 (GeneID 37910)	1	0.2	0.23			
CG10029 (GeneID 40883)	1	0.33	0.43			
CG34030 (GeneID 3885636)	1	0.48	0.29			
Hr4 (GeneID 31162)	1	-2.97	-1.78	0.36	0.36	reduced secretion
Hr4 (GeneID 31162)	2	0.07	0.02			
Hr4 (GeneID 31162)	3	-1.14	-0.83			reduced secretion
Hr4 (GeneID 31162)	4	2.48	0.94			
conv (GeneID 36588)	1	0.09	0.3			
aralar1 (GeneID 43616)	1	0.35	0.44			
aralar1 (GeneID 43616)	2	0.12	0.25			
fs(1)N (GeneID 45973)	1	0.36	0.22			
Drip (GeneID 36236)	1	0.47	0.09			
CG17349 (GeneID 35209)	1	0.22	0.3			
mRpS28 (GeneID 37136)	1	-0.03	0.16			
MED16 (GeneID 37535)	1	-6.95	-5.51			reduced secretion
CG8468 (GeneID 36577)	1	0.31	0.16			
IPIP (GeneID 33849)	1	0.35	0.24			
Optix (GeneID 44108)	1	0.47	-0.11	0.03		
Optix (GeneID 44108)	2	0.45	0.35			
Optix (GeneID 44108)	3	-0.12	0.36			
Debcl (GeneID 53585)	1	0.22	0.28			
Ir10a (GeneID 32067)	1	0.57	-0.12			
Ir10a (GeneID 32067)	2	0.4	0.59			
Ir10a (GeneID 32067)	3	0.4	0.55			
Sgs3 (GeneID 39288)	1	0.54	0.43			
mRpL47 (GeneID 41141)	1	0.13	0.25			
Cnx99A + Cnx14D	1	0.39	0.52			
CheB38b (GeneID 2768933)	1	0.93	0.49			
CG14744 (GeneID 35858)	1	0.1	0.28			
